These are yes or no findings as the source states them, for the method shown. For part of these data: In cells and extracts the contact can be indirect. Some entries that bind do so weakly or less than the wild type.

By UniProt entry, the sequences of proteins in these tests, tags left out. Residues count along the entry.
GST-fusion protein of the second BIR (baculoviral IAP repeat) motif of XIAP (P98170, residues 124-240): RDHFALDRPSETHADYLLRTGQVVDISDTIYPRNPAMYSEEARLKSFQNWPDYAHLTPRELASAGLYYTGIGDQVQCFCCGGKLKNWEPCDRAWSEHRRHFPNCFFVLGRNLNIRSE
third BIR domain of XIAP (P98170, residues 241-356): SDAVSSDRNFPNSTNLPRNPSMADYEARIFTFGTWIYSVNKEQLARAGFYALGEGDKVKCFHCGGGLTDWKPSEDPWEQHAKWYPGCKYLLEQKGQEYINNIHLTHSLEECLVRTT

To fix the notation:
B1: Smac-5: NH2-AVPIA-COOH (peptide)
peptide: AVPIA
B2: Hid-6: NH2-AVAFYL-COOH (peptide)
peptide: AVAFYL
B3: Smac-6: NH2-AVPIAQ-COOH (peptide)
peptide: AVPIAQ
B4: Grim-5: NH2-AIAYF-COOH (peptide)
peptide: AIAYF
B5: Reaper-6: NH2-AVAFYI-COOH (peptide)
peptide: AVAFYI
B6: Reaper-5: NH2-AVAFY-COOH (peptide)
peptide: AVAFY
B7: Smac-7: NH2-AVPIAQK-COOH (peptide)
peptide: AVPIAQK

The first test has as its target third BIR domain of XIAP (UniProt P98170). Nature of the test: in vitro IAP (BIR) binding, GST pull-down (Example 9).
Consider B1, for which the binding result is reported as “binds”.

As for B2, the binding result was “binds”.

B3: the binding entry is “binds”.

With B4, the binding entry was “binds”.

As for B5, the binding result was “binds”.

For the molecule B6, the binding result is on record as “binds”.

On to B7, for which the binding entry was “binds”.

The target of a further test is GST-fusion protein of the second BIR (baculoviral IAP repeat) motif of XIAP (UniProt P98170). The test is described as above.
With B1, the binding result is “binds”.

Regarding B2, the binding result was “binds”.

Consider B3, for which the binding result is “binds”.

B4: the binding result is recorded as “binds”.

Take B5: the binding result is listed as “binds”.

Turning to B6, the binding entry is “binds”.

With B7, the binding result is “binds”.

In a further test the target is biotinylated BIR domain (UniProt P98170). Nature of the test: solid phase binding, 33P-labeled peptoid, biotinylated BIR on avidin plate (Example 11).
B1: the binding entry is reported as “binds”.

As to B3, the binding result is “binds”.

On to B7, for which the binding entry is given as “binds”.

The target of a further test is GST-fusion protein of the second BIR (baculoviral IAP repeat) motif of XIAP (UniProt P98170). Put plainly: fluorescence polarization, rhodamine-labeled peptoid, GST/BIR fusion (Example 10).
Turning to B1, the binding result is reported as “binds”.

In the case of B3, the binding result is recorded as “binds”.

As for B7, the binding result is “binds”.

The target is the same in the next test. Put plainly: GST pull-down, radiolabeled peptide on GST-BIR2 glutathione resin (Example 9); IAP binding grade.
As to B1, the binding entry is given as “binds”.

For the molecule B2, the binding result is reported as “binds”.

Consider B3, for which the binding entry is listed as “binds”.

With B4, the binding entry is recorded as “binds”.

In the case of B5, the binding result was “binds”.

As to B6, the binding entry was “binds”.

In the case of B7, the binding result is recorded as “binds”.

The record behind these values is patent US20040077542A1 (University of Texas, published 2004).
